Experimental data taken from patent US20020068684A1, “Stripping and cleaning compositions” (priority 1999, published 2002).

Assay: Corrosion inhibitor efficiency from metal etch rates, blanket copper films, four point probe
Settings: for corrosion inhibition of copper films relative to gallic acid: DMAC, water, 45% choline hydroxide (wt % of 64/30/6)

| Compound | corrosion inhibition of copper films relative to gallic acid | corrosion inhibition for copper compared with other inhibitors (1 wt % vs 5 wt % of 8-HQ, catechol, pyrogallol, gallic acid, benzoic acid and benzotriazole) |
| --- | --- | --- |
| O=C(O)c1ccccc1 [Benzoic Acid] | same protection as gallic acid |  |
| O=C(O)CC(=O)O [Malonic Acid] |  | better corrosion inhibition |
| CCOC(=O)c1cc(O)c(O)c(O)c1 [ethyl gallate] | did not provide the same level of corrosion inhibition as gallic acid |  |
